From patent US20050197634A1, “Methods for coating and impregnating medical devices with antiseptic compositions” (Board of Regents, The University of Texas System, priority 2004, published 2005)
At least one compound was matched to its structure with a doubt left.

Key:
[1] = tested on: Methicillin resistant Staph. aureus (MRSA2066); assay: Zones of inhibition of impregnated device segments, modified Kirby-Bauer technique; format: cell-based; settings: Silk sutures; duplicate
Protocol: (§1) In Vitro antimicrobial activity. The antimicrobial activity of impregnated catheters was evaluated in duplicate by a modified Kirby-Bauer technique. BBL Mueller Hinton II agar plates (obtained from Fisher Scientific) were inoculated with 0.5 McFarland of the appropriate microorganism (hospital isolates from the MD Anderson Cancer Center). Then 10 mm segments of impregnated devices were embedded in the inoculated plates and placed in an incubator at about 37° C. for at least 18 hours. Zones of inhibition were measured perpendicular to the long axis of the device.
(§2) Anti-microbial activity of GND-ETT and GND-UC segments was assessed by modified Kirby-Bauer method. Segments were embedded in Mueller Hinton agar plates inoculated with one of the following organisms: Candida albicans (CA), vancomycin resistant enterococci (VRE), E. coli (EC), Candida parapsilosis(CP), methicillin resistant S. aureus (MRSA) or Pseudomonas aeruginosa (PS). Plates were incubated at 37° C. Zones of inhibition (ZOI) created by impregnated segments were measured in mm.
(§3) GND-ETT and GND-UC were immersed in sterile pooled bronchoalveolar lavage (BAL) or urine, respectively, and incubated at 37° C. BAL and urine were changed weekly and ZOI were determined in duplicate at weekly intervals.

[2] = tested on: Candida parapsilosis (C. Parap.1-100-0022); assay: as above; format: cell-based; settings: Silk sutures; duplicate
Protocol: as §1, §2, §3

| SMILES | Zones of Inhibition (in mm) against MRSA2066 [1] | Zones of Inhibition (in mm) against C. Parap.1-100-0022 [2] |
| --- | --- | --- |
| CC(C)(C)CC(C)(C)c1ccc([O-])c(Cc2ccc(Cl)cc2Cl)c1.CN(C)c1ccc(C(=C2C=CC(=[N+](C)C)C=C2)c2ccc(N(C)C)cc2)cc1 [Genfoctol] | 17:17 mm | 15:16 mm |
| CN(C)c1ccc(C(=C2C=CC(=[N+](C)C)C=C2)c2ccc(N(C)C)cc2)cc1.Cc1cc([O-])cc(C)c1Cl [Genlenol] | 11:11 mm | 5:5 mm |
